Values quoted from earlier work as cited in US10781467B2, “3-epimerase and polynucleotide encoding same” (priority 2016, dated 2020).

Settings: relative to sucrose; cited from earlier work

Structure (SMILES) | caloric energy, % of the energy of sucrose [%] | sweetness, % of the sweetness of sucrose [%]
O=C(CO)[C@H](O)[C@H](O)[C@H](O)CO [D-allulose, D-ribo-2-hexulose] | 0.3 | 70
O=C(CO)[C@@H](O)[C@@H](O)[C@H](O)CO [D-tagatose] |  | 92
